In PubChem BioAssay AID248 (DTP/NCI, 2004):
The list shows only some results of the screen, not a fair sample: it gathers tests that were run many times, whatever their T/C, doses with no T/C, and many T/C values between a quarter and a half above the control. Further doses and runs are listed elsewhere. T/C is the treated group as % of the vehicle group. Some doses have a count of surviving animals in place of a T/C: the source holds a T/C of zero for them, seemingly a mark for toxic or unscored doses. Some survivor counts are full or nearly so, which does not show that the dose was tolerated: the source hardly ever lists a survival T/C far under the control, and the zero likely stands for such cases as well. Counts of survivors are from the toxicity check (mostly the fifth day) where no day follows; animals may have died later. Schedules are NCI's codes, read here as Q, the interval in days (D) or hours (H), X, the number of doses. Some entries hold several experiments; the values are given in rising order. Some schedule codes hold Z or #, which are not explained here. Where survival is the endpoint, this PubChem deposit counts one and a half times the control or more as active, and values a quarter to a half above the control carry no call in these data; other NCI protocols may use other cut-offs. Signs of the kind (2×) say how often a value occurs here. Some T/C values are followed by the survivors on the day toxicity was checked, most often the fifth; without a count, all were alive then.

System: L1210 leukemia ip in BDF1 mice, survival T/C
Assay: NCI In Vivo Anticancer Drug Screen. Data for tumor model L1210 Leukemia (intraperitoneal) in B6D2F1 (BDF1) mice
Details: T/C endpoint: mean survival time, higher T/C = longer survival
[1] = dose: 400.0 mg/kg/injection, schedule: Q01DX009 (ip), vehicle: Klucel (hydroxypropylcellulose) (HPC)
[2] = dose: 400.0 mg/kg/injection, schedule: Q04DX003 (ip), vehicle: acetone
[3] = dose: 400.0 mg/kg/injection, schedule: Q01DX001 (ip), vehicle: saline
[4] = dose: 50.0 mg/kg/injection, schedule: Q01DX001 (ip), vehicle: Klucel (hydroxypropylcellulose) (HPC)
[5] = dose: 100.0 mg/kg/injection, schedule: Q01DX009 (ip), vehicle: carboxymethylcellulose (CMC)
[6] = dose: 200.0 mg/kg/injection, schedule: Q01DX009 (ip), vehicle: carboxymethylcellulose (CMC)
[7] = dose: 50.0 mg/kg/injection, schedule: Q01DX009 (ip), vehicle: Klucel (hydroxypropylcellulose) (HPC)
[8] = dose: 200.0 mg/kg/injection, schedule: Q01DX009 (ip), vehicle: Klucel (hydroxypropylcellulose) (HPC)
[9] = dose: 300.0 mg/kg/injection, schedule: Q01DX001 (ip), vehicle: saline
[10] = dose: 100.0 mg/kg/injection, schedule: Q04DX003 (ip), vehicle: saline
[11] = dose: 200.0 mg/kg/injection, schedule: Q04DX003 (ip), vehicle: saline

CC(=O)Nc1onc(C)c1[N+](=O)[O-]
survivor count (dose: 100.0 mg/kg/injection, schedule: Q01DX009 (ip), vehicle: saline): 6 of 6

O=C(/C=C\c1ccccc1)/C=C/c1ccccc1
survivor count [1]: 6 of 6

N=C(N)SCC(O)c1ccccc1 (stereo not given)
survivor count [1]: 0 of 6

Cc1ccc2cc(O)ccc2c1
survivor count [2]: 0 of 6

N#CCCSC(=N)N
survivor count (dose: 200.0 mg/kg/injection, schedule: Q01DX001 (ip), vehicle: saline): 2 of 6
survivor count [3]: 0 of 6

CC1CN1P(=O)(OCCC#N)N1CC1C (stereo not given)
T/C (dose: 100.0 mg/kg/injection, schedule: Q04DX003 (ip), vehicle: acetone): 129 % of control
T/C (dose: 200.0 mg/kg/injection, schedule: Q01DX009 (ip), vehicle: saline): 141 % of control
T/C (dose: 300.0 mg/kg/injection, schedule: Q04DX003 (ip), vehicle: acetone): 146 % of control
survivor count [2]: 6 of 6

O=C1C=Cc2ccccc2C1=O
survivor count (dose: 6.25 mg/kg/injection, schedule: Q01DX001 (ip), vehicle: Klucel (hydroxypropylcellulose) (HPC)): 1 of 3
survivor count (dose: 12.5 mg/kg/injection, schedule: Q01DX001 (ip), vehicle: Klucel (hydroxypropylcellulose) (HPC)): 1 of 3
survivor count (dose: 25.0 mg/kg/injection, schedule: Q01DX001 (ip), vehicle: Klucel (hydroxypropylcellulose) (HPC)): 0 of 3
survivor count [4]: 0 of 6
survivor count (dose: 100.0 mg/kg/injection, schedule: Q01DX001 (ip), vehicle: Klucel (hydroxypropylcellulose) (HPC)): 0 of 6
survivor count (dose: 200.0 mg/kg/injection, schedule: Q01DX001 (ip), vehicle: Klucel (hydroxypropylcellulose) (HPC)): 1 of 6

O=[N+]([O-])c1cc(C(F)(F)F)cc([N+](=O)[O-])c1N/N=C/c1ccc(Cl)cc1
T/C (dose: 50.0 mg/kg/injection, schedule: Q01DX009 (ip), vehicle: carboxymethylcellulose (CMC)): 87 (2×), 88, 104 % of control
T/C [5]: 93, 96, 97 % of control
survivor count [5]: 6 of 6
T/C [6]: 90 and 95 % of control
survivor count [6]: 3 of 3 and 6 of 6

COc1nc(-c2ccccc2)cn[n+]1C
T/C (dose: 50.0 mg/kg/injection, schedule: Q01DX001 (ip), vehicle: saline with Tween-80): 127 % of control [5 of 6 alive]
survivor count (dose: 100.0 mg/kg/injection, schedule: Q01DX001 (ip), vehicle: saline with Tween-80): 1 of 6
survivor count (dose: 200.0 mg/kg/injection, schedule: Q01DX001 (ip), vehicle: saline with Tween-80): 0 of 6

CCN(CC)CCOC(=O)C(S)(c1ccccc1)C1CCCCC1 (stereo not given)
survivor count (dose: 300.0 mg/kg/injection, schedule: Q01DX001 (ip), vehicle: other): 2 of 6

O=C(COc1cc(Cl)c(Cl)cc1Cl)OC(=O)COc1cc(Cl)c(Cl)cc1Cl
survivor count (dose: 400.0 mg/kg/injection, schedule: Q04DX002 (ip), vehicle: Klucel (hydroxypropylcellulose) (HPC)): 3 of 3

CC1(C)N=C(N)N=C(N)N1c1cccc(CC(C(=O)Nc2ccc(S(=O)(=O)F)cc2)c2ccccc2)c1 (stereo not given)
survivor count [4]: 6 of 6

O=C(O)C(=O)NCc1cnccn1
survivor count (dose: 100.0 mg/kg/injection, schedule: Q01DX009 (ip), vehicle: water): 3 of 6
survivor count (dose: 200.0 mg/kg/injection, schedule: Q04DX003 (ip), vehicle: water): 5 of 6
survivor count (dose: 400.0 mg/kg/injection, schedule: Q04DX003 (ip), vehicle: water): 0 of 6

CSc1nc(C)c(Br)c(Sc2nc(N)nc3nc[nH]c23)n1
survivor count (dose: 200.0 mg/kg/injection, schedule: Q01DX Z (ip), vehicle: methylcellulose (MC)): 6 of 6

CN(CCCl)C1c2ccccc2-c2ccccc21
survivor count (dose: 200.0 mg/kg/injection, schedule: Q04DX002 (ip), vehicle: saline): 0 of 3
survivor count (dose: 400.0 mg/kg/injection, schedule: Q04DX002 (ip), vehicle: saline): 0 of 3

ClCC[N+]12CC[N+](CCCl)(CC1)C2
T/C [7]: 132 % of control
T/C (dose: 100.0 mg/kg/injection, schedule: Q01DX009 (ip), vehicle: Klucel (hydroxypropylcellulose) (HPC)): 129 % of control
T/C [8]: 134 % of control
T/C [9]: 143 % of control
survivor count [1]: 0 of 6

CCCC[P+](CO)(CCCC)CCCC
survivor count (dose: 100.0 mg/kg/injection, schedule: Q01DX001 (ip), vehicle: saline): 3 of 6
survivor count [9]: 0 of 6

O=NN(CCCl)C(=O)NCC1CCC(CNC(=O)N(CCCl)N=O)CC1 (stereo not given)
T/C (dose: 120.0 mg/kg/injection, schedule: Q01DX001 (ip), vehicle: carboxymethylcellulose (CMC)): 142 % of control
T/C [8]: 137 % of control
survivor count (dose: 600.0 mg/kg/injection, schedule: Q01DX009 (ip), vehicle: carboxymethylcellulose (CMC)): 5 of 6

N#CC(C#N)=Cc1cccc2ccccc12
survivor count [1]: 2 of 6

NCc1ccc(NC(=O)c2ccc(C(=O)Nc3ccc(CN)cc3)c(N)c2)cc1
survivor count (dose: 84.0 mg/kg/injection, schedule: Q01DX Z (ip), vehicle: water): 0 of 6
survivor count (dose: 168.0 mg/kg/injection, schedule: Q01DX Z (ip), vehicle: water): 0 of 6

CCCCCCCC(=O)N1CCCN(C(=O)CCCCCCC)C1
survivor count [9]: 2 of 6

N=C(N)c1ccc(NC(=O)c2ccc(C(=O)Nc3ccc(C(=N)N)cc3)c(N)c2)cc1
T/C (dose: 250.0 mg/kg/injection, schedule: Q01DX Z (ip), vehicle: carboxymethylcellulose (CMC)): 128 % of control

CC(=O)CC(=O)Nc1cccc(Cl)c1C
survivor count [1]: 1 of 6

COC1(OC)C(Cl)=C(Cl)C(Cl)=C1Cl
survivor count (dose: 25.0 mg/kg/injection, schedule: Q04DX003 (ip), vehicle: saline with Tween-80): 1 of 6
survivor count (dose: 50.0 mg/kg/injection, schedule: Q04DX003 (ip), vehicle: saline with Tween-80): 0 of 6
survivor count (dose: 100.0 mg/kg/injection, schedule: Q04DX003 (ip), vehicle: saline with Tween-80): 0 of 6

OC(CC1(O)C(F)(F)C(F)(F)C1(F)F)c1ccccc1 (stereo not given)
survivor count (dose: 200.0 mg/kg/injection, schedule: Q01DX009 (ip), vehicle: saline with Tween-80): 6 of 6

NC(=O)CC[n+]1ccccc1
survivor count [10]: 5 of 6
survivor count [11]: 0 of 6

C=CCNC(=S)N(C)Cc1ccccc1Cl
survivor count [1]: 0 of 6

CCCCOc1c(Cl)c(Cl)c(O)c(Cl)c1Cl
survivor count (dose: 200.0 mg/kg/injection, schedule: Q01DX009 (ip), vehicle: acetone): 2 of 6
survivor count [3]: 2 of 6

Oc1c(CN2CCCC2)cc(Nc2cc(/C=C/c3ccc(Cl)cc3)nc(/C=C\c3ccc(Cl)cc3)n2)cc1CN1CCCC1
survivor count (dose: 25.0 mg/kg/injection, schedule: Q01DX009 (ip), vehicle: Klucel (hydroxypropylcellulose) (HPC)): 3 of 6
survivor count (dose: 25.0 mg/kg/injection, schedule: Q04DX003 (ip), vehicle: saline): 6 of 6
survivor count [7]: 0 of 6
survivor count [10]: 1 of 6
survivor count [11]: 0 of 6
survivor count (dose: 400.0 mg/kg/injection, schedule: Q04DX003 (ip), vehicle: saline): 0 of 6

C[n+]1cccc2c(C(=O)O)cccc21
survivor count [3]: 3 of 6
